Measured values taken from patent US20240174674A1, “NITROGEN-CONTAINING POLYCYCLIC FUSED RING COMPOUND, PHARMACEUTICAL COMPOSITION THEREOF, PREPARATION METHOD THEREFOR, AND USE THEREOF” (APPLIED PHARMACEUTICAL SCIENCE, INC., priority 2021, published 2024).

Chains of the proteins cited; added tags and fusions are not shown. Residues count along the entry.
UniProt P07949, 29-1114 G810R limits assumed: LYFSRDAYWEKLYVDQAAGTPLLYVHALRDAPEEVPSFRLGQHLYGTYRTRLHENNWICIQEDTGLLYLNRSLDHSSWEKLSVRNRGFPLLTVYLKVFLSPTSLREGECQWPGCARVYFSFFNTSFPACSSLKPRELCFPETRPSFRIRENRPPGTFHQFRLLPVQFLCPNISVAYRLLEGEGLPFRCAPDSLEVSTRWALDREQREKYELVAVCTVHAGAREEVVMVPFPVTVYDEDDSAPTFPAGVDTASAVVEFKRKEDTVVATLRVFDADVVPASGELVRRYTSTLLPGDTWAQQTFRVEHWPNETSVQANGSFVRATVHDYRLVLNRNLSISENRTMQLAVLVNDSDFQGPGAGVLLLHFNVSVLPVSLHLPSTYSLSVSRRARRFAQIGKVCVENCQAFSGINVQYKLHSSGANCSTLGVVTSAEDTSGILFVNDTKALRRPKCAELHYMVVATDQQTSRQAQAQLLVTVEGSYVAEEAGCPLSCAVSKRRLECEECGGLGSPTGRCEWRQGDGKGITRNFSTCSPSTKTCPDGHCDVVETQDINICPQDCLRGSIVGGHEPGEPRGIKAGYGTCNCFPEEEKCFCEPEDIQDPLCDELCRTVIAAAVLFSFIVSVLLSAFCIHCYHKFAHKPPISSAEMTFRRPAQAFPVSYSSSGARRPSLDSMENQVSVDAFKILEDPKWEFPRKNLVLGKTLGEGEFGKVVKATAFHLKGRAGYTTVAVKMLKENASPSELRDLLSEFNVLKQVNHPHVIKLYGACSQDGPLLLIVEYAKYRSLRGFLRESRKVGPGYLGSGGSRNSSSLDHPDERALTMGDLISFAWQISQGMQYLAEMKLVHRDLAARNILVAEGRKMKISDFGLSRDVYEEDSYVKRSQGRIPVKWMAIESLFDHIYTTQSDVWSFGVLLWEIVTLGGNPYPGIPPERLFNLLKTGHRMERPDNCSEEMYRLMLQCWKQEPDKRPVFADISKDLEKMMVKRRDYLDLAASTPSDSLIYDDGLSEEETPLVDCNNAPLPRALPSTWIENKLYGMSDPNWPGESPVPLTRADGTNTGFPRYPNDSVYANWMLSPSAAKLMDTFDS

Target: RET G810R (Homo sapiens (Human), UniProt P07949, G810R)
Assay: HTRF KinEASE-TK kinase activity test, RET G810R
Details: read-out: RET G810R IC50; HTRF kinase assay

`CCOc1cc(-c2ccc(N3CC4CC(C3)N4Cc3ccc(S(C)(=O)=O)cc3)nc2)c2c3cn[nH]c3nn2c1` gave an IC50 of 4.7 nM.

The match of structure and compound is tentative.
